According to the supplement of paper PMC12823440, “Inhibitors supercharge kinase turnover through native proteolytic circuits” (Nature, 2025):
Structures can show the parent of a compound that is named as a salt. The list shows a part of the results. The calls rarely recur for the same compound in another form.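 In K562 cells expressing nanoluciferase-fused kinases, luminescence was recorded at 4 h intervals between 2 and 18 h, normalized as percent of control with DMSO at 100% and a positive control at 0%. A significant (2 sigma) signal drop marks a time point as decreased. The authors' rule for a hit is not shown and takes in more than the number of time points.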

Amino acid sequences for entries named in this document (tags omitted). A change or cut given only in a name is not applied to a line headed by its entry.
UniProt Q9Y616: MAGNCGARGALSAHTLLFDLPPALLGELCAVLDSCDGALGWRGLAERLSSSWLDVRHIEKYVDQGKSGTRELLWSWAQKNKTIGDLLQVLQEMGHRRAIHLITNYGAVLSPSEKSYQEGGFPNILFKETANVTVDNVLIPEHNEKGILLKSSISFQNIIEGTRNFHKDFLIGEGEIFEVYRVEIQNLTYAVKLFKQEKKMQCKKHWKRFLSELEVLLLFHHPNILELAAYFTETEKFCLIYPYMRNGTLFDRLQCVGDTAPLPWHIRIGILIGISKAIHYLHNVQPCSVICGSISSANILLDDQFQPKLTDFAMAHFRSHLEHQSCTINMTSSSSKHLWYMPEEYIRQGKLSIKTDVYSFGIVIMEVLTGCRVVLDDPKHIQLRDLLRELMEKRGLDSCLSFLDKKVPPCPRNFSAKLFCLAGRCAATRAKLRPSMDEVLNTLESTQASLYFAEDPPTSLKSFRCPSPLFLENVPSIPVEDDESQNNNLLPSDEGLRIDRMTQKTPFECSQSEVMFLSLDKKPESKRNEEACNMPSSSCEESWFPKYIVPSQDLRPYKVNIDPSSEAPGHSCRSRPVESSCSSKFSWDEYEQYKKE
UniProt P23458: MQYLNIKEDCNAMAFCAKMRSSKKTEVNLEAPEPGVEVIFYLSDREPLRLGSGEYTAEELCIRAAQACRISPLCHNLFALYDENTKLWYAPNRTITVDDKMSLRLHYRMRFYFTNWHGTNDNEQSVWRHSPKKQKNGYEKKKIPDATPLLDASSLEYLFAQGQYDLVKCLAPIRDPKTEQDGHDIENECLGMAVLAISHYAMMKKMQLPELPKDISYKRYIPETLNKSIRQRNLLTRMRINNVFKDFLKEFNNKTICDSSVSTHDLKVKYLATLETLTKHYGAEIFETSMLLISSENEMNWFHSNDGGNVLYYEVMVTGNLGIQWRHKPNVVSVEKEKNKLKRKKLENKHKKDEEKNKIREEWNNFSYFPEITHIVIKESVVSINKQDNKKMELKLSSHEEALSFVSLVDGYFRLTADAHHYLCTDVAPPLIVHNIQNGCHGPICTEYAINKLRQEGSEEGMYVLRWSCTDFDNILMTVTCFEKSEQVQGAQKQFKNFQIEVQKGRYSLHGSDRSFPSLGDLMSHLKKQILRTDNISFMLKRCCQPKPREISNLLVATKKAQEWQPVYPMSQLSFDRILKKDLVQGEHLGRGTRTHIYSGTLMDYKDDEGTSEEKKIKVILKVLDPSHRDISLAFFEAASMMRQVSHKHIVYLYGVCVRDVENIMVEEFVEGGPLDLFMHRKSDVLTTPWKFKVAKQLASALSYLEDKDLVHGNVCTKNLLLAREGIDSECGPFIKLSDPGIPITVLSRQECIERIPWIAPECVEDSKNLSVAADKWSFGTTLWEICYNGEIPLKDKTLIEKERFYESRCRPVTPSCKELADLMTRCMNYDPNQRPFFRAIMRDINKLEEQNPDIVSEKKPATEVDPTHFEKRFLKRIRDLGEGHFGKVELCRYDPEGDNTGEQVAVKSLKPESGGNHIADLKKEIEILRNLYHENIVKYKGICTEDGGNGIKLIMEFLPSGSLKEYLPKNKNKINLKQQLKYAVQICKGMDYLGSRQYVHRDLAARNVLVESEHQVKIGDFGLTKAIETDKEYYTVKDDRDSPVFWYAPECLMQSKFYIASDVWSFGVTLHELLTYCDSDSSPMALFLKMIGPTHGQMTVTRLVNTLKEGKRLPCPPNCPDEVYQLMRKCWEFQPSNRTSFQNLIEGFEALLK
UniProt P06239: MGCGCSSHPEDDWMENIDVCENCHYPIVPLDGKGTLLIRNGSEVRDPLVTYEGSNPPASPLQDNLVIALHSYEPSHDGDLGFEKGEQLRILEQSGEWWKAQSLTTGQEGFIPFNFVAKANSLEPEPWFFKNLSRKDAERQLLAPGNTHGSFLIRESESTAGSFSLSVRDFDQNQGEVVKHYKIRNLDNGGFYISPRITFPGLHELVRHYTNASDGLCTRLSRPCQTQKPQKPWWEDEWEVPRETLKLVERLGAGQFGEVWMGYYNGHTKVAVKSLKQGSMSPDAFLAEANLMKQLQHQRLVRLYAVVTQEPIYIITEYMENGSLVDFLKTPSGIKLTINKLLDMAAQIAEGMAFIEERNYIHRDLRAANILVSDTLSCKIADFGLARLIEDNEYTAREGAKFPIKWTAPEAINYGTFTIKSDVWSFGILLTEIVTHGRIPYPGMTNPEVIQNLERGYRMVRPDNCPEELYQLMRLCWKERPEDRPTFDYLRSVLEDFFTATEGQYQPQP
UniProt P53671: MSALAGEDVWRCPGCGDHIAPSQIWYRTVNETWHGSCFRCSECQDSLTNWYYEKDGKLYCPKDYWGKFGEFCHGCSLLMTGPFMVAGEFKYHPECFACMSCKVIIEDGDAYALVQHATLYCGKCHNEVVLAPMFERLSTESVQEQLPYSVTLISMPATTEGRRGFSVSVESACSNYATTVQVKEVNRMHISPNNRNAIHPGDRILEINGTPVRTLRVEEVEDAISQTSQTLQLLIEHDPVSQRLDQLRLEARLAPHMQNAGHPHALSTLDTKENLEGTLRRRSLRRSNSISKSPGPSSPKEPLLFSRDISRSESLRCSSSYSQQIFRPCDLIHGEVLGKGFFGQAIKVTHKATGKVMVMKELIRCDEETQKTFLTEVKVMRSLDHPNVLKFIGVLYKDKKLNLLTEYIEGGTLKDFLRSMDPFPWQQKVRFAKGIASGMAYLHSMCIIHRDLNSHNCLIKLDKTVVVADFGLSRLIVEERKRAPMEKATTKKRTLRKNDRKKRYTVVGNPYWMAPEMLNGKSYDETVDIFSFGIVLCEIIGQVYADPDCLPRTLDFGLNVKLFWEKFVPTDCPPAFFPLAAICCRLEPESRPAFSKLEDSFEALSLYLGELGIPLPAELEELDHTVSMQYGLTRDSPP
UniProt Q12851: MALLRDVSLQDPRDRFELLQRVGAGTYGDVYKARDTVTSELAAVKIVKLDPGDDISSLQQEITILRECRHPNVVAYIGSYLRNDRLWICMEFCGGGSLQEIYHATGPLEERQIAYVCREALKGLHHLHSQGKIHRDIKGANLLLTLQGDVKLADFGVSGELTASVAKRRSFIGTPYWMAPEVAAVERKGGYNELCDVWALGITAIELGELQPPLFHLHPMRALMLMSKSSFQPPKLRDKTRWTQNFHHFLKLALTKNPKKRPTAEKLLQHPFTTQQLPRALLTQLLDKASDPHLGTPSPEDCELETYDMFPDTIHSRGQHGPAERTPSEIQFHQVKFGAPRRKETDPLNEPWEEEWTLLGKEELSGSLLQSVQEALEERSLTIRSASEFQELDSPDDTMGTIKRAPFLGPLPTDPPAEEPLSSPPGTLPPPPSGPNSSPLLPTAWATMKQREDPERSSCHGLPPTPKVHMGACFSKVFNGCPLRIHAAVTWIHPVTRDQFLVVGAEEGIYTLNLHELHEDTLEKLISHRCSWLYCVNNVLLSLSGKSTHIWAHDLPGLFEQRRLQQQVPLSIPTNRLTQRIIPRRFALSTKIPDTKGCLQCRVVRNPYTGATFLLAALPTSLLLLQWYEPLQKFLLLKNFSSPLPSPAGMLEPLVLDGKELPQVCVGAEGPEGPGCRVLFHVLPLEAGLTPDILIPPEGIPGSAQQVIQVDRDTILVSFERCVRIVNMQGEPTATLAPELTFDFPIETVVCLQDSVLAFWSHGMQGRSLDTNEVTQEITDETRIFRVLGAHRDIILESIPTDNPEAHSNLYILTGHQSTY
UniProt P28482, whole entry: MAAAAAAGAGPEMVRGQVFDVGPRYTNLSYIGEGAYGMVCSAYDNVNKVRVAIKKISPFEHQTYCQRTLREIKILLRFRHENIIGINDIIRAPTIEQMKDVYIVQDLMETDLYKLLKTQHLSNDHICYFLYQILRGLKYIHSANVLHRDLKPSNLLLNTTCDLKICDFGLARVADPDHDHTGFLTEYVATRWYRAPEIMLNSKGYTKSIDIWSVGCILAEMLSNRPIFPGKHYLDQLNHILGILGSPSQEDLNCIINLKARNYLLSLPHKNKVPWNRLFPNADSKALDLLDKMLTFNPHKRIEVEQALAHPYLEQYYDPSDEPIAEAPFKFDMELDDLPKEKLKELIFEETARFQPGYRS
UniProt P31152, whole entry: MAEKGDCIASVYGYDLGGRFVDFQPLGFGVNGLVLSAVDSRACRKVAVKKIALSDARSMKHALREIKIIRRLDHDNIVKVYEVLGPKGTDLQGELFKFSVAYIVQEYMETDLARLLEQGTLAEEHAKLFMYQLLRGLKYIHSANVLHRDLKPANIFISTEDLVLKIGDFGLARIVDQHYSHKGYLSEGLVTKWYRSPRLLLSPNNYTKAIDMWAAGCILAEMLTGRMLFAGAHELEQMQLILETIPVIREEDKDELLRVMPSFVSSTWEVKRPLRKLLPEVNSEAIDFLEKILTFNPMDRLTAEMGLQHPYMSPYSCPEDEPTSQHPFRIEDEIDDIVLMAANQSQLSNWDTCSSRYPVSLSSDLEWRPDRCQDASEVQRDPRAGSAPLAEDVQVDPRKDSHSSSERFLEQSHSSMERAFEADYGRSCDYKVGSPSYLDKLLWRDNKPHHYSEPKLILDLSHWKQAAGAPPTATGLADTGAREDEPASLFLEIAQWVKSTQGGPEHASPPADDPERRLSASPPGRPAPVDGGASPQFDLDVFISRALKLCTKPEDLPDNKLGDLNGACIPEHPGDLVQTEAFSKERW
UniProt P49137, whole entry, looked up: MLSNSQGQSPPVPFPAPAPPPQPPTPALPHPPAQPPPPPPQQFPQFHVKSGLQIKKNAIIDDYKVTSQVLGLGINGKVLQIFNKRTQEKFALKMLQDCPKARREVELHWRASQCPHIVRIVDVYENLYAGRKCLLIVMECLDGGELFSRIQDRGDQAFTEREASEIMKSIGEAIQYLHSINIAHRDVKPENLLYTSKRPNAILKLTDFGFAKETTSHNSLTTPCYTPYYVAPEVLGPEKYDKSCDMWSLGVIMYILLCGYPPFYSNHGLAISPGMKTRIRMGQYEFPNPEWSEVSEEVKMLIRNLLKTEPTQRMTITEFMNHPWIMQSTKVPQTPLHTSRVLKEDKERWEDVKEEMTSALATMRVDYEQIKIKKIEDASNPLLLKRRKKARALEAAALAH
UniProt Q9BUB5: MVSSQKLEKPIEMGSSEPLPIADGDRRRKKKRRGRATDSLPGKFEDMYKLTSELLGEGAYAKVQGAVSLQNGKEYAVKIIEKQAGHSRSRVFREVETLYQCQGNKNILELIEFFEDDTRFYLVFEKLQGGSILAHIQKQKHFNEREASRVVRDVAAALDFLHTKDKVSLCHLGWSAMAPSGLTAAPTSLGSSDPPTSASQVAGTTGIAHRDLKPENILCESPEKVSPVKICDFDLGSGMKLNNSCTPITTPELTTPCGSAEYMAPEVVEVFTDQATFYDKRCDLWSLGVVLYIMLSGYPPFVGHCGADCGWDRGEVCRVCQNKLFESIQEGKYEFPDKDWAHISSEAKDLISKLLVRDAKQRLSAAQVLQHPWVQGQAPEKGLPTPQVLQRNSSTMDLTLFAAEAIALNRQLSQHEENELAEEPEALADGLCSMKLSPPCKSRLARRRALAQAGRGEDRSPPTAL
UniProt O96013: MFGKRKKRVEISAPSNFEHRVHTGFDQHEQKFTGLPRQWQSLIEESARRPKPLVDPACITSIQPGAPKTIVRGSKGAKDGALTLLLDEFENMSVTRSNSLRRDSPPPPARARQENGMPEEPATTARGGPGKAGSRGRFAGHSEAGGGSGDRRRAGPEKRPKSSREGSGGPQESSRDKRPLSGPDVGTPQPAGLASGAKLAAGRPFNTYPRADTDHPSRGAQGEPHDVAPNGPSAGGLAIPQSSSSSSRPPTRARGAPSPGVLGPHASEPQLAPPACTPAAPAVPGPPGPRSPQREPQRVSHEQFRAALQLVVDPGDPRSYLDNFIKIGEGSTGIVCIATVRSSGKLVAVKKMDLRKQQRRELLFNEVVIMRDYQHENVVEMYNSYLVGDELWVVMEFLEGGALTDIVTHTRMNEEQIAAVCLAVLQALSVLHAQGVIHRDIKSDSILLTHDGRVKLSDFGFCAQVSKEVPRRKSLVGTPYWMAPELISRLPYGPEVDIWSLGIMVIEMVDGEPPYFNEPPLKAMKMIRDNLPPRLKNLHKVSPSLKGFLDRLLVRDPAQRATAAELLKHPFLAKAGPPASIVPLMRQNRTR
UniProt Q96KB5: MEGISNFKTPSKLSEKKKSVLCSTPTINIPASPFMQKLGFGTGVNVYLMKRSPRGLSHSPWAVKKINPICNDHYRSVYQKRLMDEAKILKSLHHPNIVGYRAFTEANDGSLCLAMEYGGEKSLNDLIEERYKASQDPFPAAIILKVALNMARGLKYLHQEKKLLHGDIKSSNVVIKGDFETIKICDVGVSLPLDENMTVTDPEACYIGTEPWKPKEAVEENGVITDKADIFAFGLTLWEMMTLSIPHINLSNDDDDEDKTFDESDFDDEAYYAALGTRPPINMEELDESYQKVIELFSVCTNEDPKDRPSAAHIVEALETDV

Experiments:
Assay in all cases: kinase-Nluc reporter destabilization hit call (1 = scored as downregulated) (binary); higher = compound decreases kinase abundance
Settings in all cases: K562; 2-18 h
[1] = biological target: IRAK3 (UniProt Q9Y616)
[2] = biological target: JAK1 (UniProt P23458)
[3] = biological target: LCK (UniProt P06239)
[4] = biological target: LIMK1 (UniProt P53667)
[5] = biological target: LIMK2 (UniProt P53671)
[6] = biological target: LMTK2 (UniProt Q8IWU2)
[7] = biological target: LYN (UniProt P07948)
[8] = biological target: MAP2K1 (UniProt Q02750)
[9] = biological target: MAP2K2 (UniProt P36507)
[10] = biological target: MAP4K2 (UniProt Q12851)
[11] = biological target: MAPK1 (UniProt P28482)
[12] = biological target: MAPK4 (UniProt P31152)
[13] = biological target: MAPKAPK2 (UniProt P49137)
[14] = biological target: MKNK1 (UniProt Q9BUB5)
[15] = biological target: NTRK2 (UniProt Q16620)
[16] = biological target: NTRK3 (UniProt Q16288)
[17] = biological target: PAK4 (UniProt O96013)
[18] = biological target: PBK (UniProt Q96KB5)
[19] = biological target: PDGFRB (UniProt P09619)
[20] = biological target: PDK1 (UniProt Q15118)

Measured: kinase-Nluc reporter destabilization hit call

CCS(=O)(=O)c1ncc(Cl)c(C(=O)N(Cc2ccc(Cl)cc2)Cc2ccco2)n1 (2.5 µM)
inactive: [1] 0 | [2] 0 | [3] 0 | [4] 0 | [5] 0 | [6] 0 | [7] 0 | [8] 0 | [9] 0 | [10] 0 | [11] 0 | [12] 0 | [13] 0 | [14] 0 | [15] 0 | [16] 0 | [17] 0 | [18] 0 | [19] 0 | [20] 0

C[C@H](c1ccnc(Nc2nc3ccc(-c4cc(N(C)C)ncn4)cc3[nH]2)c1)N1CCN(C(=O)CC(F)(F)F)CC1 (2.5 µM)
inactive: [1] 0 | [2] 0 | [3] 0 | [4] 0 | [5] 0 | [6] 0 | [7] 0 | [8] 0 | [9] 0 | [10] 0 | [11] 0 | [12] 0 | [13] 0 | [14] 0 | [15] 0 | [16] 0 | [17] 0 | [18] 0 | [19] 0 | [20] 0

Cc1cc(=O)oc2c(C=O)c(O)ccc12 (10 µM)
inactive: [1] 0 | [2] 0 | [3] 0 | [4] 0 | [5] 0 | [6] 0 | [7] 0 | [8] 0 | [9] 0 | [10] 0 | [11] 0 | [12] 0 | [13] 0 | [14] 0 | [15] 0 | [16] 0 | [17] 0 | [18] 0 | [19] 0 | [20] 0

CC(=O)c1c(C)cc2cccc(O)c2c1O [Nepodin] (10 µM)
inactive: [1] 0 | [2] 0 | [3] 0 | [4] 0 | [5] 0 | [6] 0 | [7] 0 | [8] 0 | [9] 0 | [10] 0 | [11] 0 | [12] 0 | [13] 0 | [14] 0 | [15] 0 | [16] 0 | [17] 0 | [18] 0 | [19] 0 | [20] 0

CN(C)CCCOc1ccc(-c2ccc3ncc4c(c3c2)n(C2CCOCC2)c(=O)n4C)cn1 (2 µM)
inactive: [1] 0 | [2] 0 | [3] 0 | [4] 0 | [5] 0 | [6] 0 | [7] 0 | [8] 0 | [9] 0 | [10] 0 | [11] 0 | [12] 0 | [13] 0 | [14] 0 | [15] 0 | [16] 0 | [17] 0 | [18] 0 | [19] 0 | [20] 0

O=C(CSC1=NCCN1)NC1CCCCCC1 [ICCB-19 (hydrochloride)] (2.5 µM)
inactive: [1] 0 | [2] 0 | [3] 0 | [4] 0 | [5] 0 | [6] 0 | [7] 0 | [8] 0 | [9] 0 | [10] 0 | [11] 0 | [12] 0 | [13] 0 | [14] 0 | [15] 0 | [16] 0 | [17] 0 | [18] 0 | [19] 0 | [20] 0

COc1ncc(Cl)cc1S(=O)(=O)Nc1ccc(F)c(C#Cc2cnc(N)nc2)c1F (2.5 µM)
inactive: [1] 0 | [2] 0 | [3] 0 | [4] 0 | [5] 0 | [6] 0 | [7] 0 | [8] 0 | [9] 0 | [10] 0 | [11] 0 | [12] 0 | [13] 0 | [14] 0 | [15] 0 | [16] 0 | [17] 0 | [18] 0 | [19] 0 | [20] 0

COc1cc(OC2CCN(C)CC2)ccc1Nc1ncc2c(n1)n(C1CCCC1)c(=O)n2C (10 µM)
inactive: [1] 0 | [2] 0 | [3] 0 | [4] 0 | [5] 0 | [6] 0 | [7] 0 | [8] 0 | [9] 0 | [10] 0 | [11] 0 | [12] 0 | [13] 0 | [14] 0 | [15] 0 | [16] 0 | [17] 0 | [18] 0 | [19] 0 | [20] 0

Random excerpt: 2 entries already listed.
COc1ncc(Cl)cc1S(=O)(=O)Nc1ccc(F)c(C#Cc2cnc(N)nc2)c1F (2.5 µM)
inactive: [1] 0 | [2] 0 | [3] 0 | [4] 0 | [5] 0 | [6] 0 | [7] 0 | [8] 0 | [9] 0 | [10] 0 | [11] 0 | [12] 0 | [13] 0 | [14] 0 | [15] 0 | [16] 0 | [17] 0 | [18] 0 | [19] 0 | [20] 0

O=C(CSC1=NCCN1)NC1CCCCCC1 [ICCB-19 (hydrochloride)] (2.5 µM)
inactive: [1] 0 | [2] 0 | [3] 0 | [4] 0 | [5] 0 | [6] 0 | [7] 0 | [8] 0 | [9] 0 | [10] 0 | [11] 0 | [12] 0 | [13] 0 | [14] 0 | [15] 0 | [16] 0 | [17] 0 | [18] 0 | [19] 0 | [20] 0

Following part:

CC1CCc2c(cc(Br)c(F)c2Br)N1C=O (stereo not given) (10 µM)
inactive: [1] 0 | [2] 0 | [3] 0 | [4] 0 | [5] 0 | [6] 0 | [7] 0 | [8] 0 | [9] 0 | [10] 0 | [11] 0 | [12] 0 | [13] 0 | [14] 0 | [15] 0 | [16] 0 | [17] 0 | [18] 0 | [19] 0 | [20] 0

N#CCC1CCN(c2nc(Nc3ccc(N4CCC(O)CC4)cc3)c3c(=O)[nH]ncc3n2)CC1 [Gusacitinib] (10 µM)
inactive: [1] 0 | [2] 0 | [3] 0 | [4] 0 | [5] 0 | [6] 0 | [7] 0 | [8] 0 | [9] 0 | [10] 0 | [11] 0 | [12] 0 | [13] 0 | [14] 0 | [15] 0 | [16] 0 | [17] 0 | [18] 0 | [19] 0 | [20] 0

CCC(C)N1c2ccccc2C(=O)N(C)c2cnc(Nc3ccc(C(=O)N4CCC(N5CCN(C)CC5)CC4)cc3OC)nc21 (stereo not given) (2.5 µM)
inactive: [1] 0 | [2] 0 | [3] 0 | [4] 0 | [5] 0 | [6] 0 | [7] 0 | [8] 0 | [9] 0 | [10] 0 | [11] 0 | [12] 0 | [13] 0 | [14] 0 | [15] 0 | [16] 0 | [17] 0 | [18] 0 | [19] 0 | [20] 0

CC#CC(=O)N1CC[C@@H](n2c(=O)n(-c3ccc(Oc4ccccc4)cc3)c3c(N)ncnc32)C1 [Tirabrutinib (hydrochloride)] (10 µM)
inactive: [1] 0 | [2] 0 | [3] 0 | [4] 0 | [5] 0 | [6] 0 | [7] 0 | [8] 0 | [9] 0 | [10] 0 | [11] 0 | [12] 0 | [13] 0 | [14] 0 | [15] 0 | [16] 0 | [17] 0 | [18] 0 | [19] 0 | [20] 0

C=CC(=O)Nc1cc(C)ccc1Nc1nc(Nc2cc(OC)ncc2C)ncc1C(F)(F)F (10 µM)
inactive: [1] 0 | [2] 0 | [3] 0 | [4] 0 | [5] 0 | [6] 0 | [7] 0 | [8] 0 | [9] 0 | [10] 0 | [11] 0 | [12] 0 | [13] 0 | [14] 0 | [15] 0 | [16] 0 | [17] 0 | [18] 0 | [19] 0 | [20] 0

CS(=O)(=O)Nc1cc(-c2ccc3ncnc(Nc4ccc(F)c(Cl)c4)c3c2)cnc1Cl (2.5 µM)
inactive: [1] 0 | [2] 0 | [3] 0 | [4] 0 | [5] 0 | [6] 0 | [7] 0 | [8] 0 | [9] 0 | [10] 0 | [11] 0 | [12] 0 | [13] 0 | [14] 0 | [15] 0 | [16] 0 | [17] 0 | [18] 0 | [19] 0 | [20] 0

COc1ccccc1-c1cc(Nc2cccc(CS(N)(=O)=O)c2)ncn1 (10 µM)
inactive: [1] 0 | [2] 0 | [3] 0 | [4] 0 | [5] 0 | [6] 0 | [7] 0 | [8] 0 | [9] 0 | [10] 0 | [11] 0 | [12] 0 | [13] 0 | [14] 0 | [15] 0 | [16] 0 | [17] 0 | [18] 0 | [19] 0 | [20] 0

Cc1c(NC(=O)c2cccn(-c3ccc(F)cc3)c2=O)ccc(Oc2ccnc(NC(=O)C3CC3)c2)c1C (2 µM)
inactive: [1] 0 | [2] 0 | [3] 0 | [4] 0 | [5] 0 | [6] 0 | [7] 0 | [8] 0 | [9] 0 | [10] 0 | [11] 0 | [12] 0 | [13] 0 | [14] 0 | [15] 0 | [16] 0 | [17] 0 | [18] 0 | [19] 0 | [20] 0

CN(C)CCSSCCNC(=O)C1CCN(C(=O)CSc2ccc(Cl)cc2)CC1 (10 µM)
inactive: [1] 0 | [2] 0 | [3] 0 | [4] 0 | [5] 0 | [6] 0 | [7] 0 | [8] 0 | [9] 0 | [10] 0 | [11] 0 | [12] 0 | [13] 0 | [14] 0 | [15] 0 | [16] 0 | [17] 0 | [18] 0 | [19] 0 | [20] 0

Cc1[nH]c(/C=C2\C(=O)Nc3ccccc32)c(C)c1CCC(=O)O [(Z)-Orantinib] (10 µM)
inactive: [1] 0 | [2] 0 | [3] 0 | [4] 0 | [5] 0 | [6] 0 | [7] 0 | [8] 0 | [9] 0 | [10] 0 | [11] 0 | [12] 0 | [13] 0 | [14] 0 | [15] 0 | [16] 0 | [17] 0 | [18] 0 | [19] 0 | [20] 0
